PubChem BioAssay AID504774 | Drosophila RNAi Screening Center – 2011

- Aim: 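Knock-downs that shift viability of MMS-exposed cells relative to untreated ones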 (primary screen)
- Cells: Drosophila Kc167 cells
- Knock-down reagent: long dsRNA against Drosophila genes, about 0.25 µg dsRNA per well
- Time to read-out: about 6 days: 3 days knock-down, then 3 days with or without MMS
- Conditions: methyl methanesulphonate 0.004% (w/v) for 3 days after knock-down
- Detection: 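ATP-dependent luminescence as a measure of live cells in MMS-exposed wells, quantile normalised within each plate, with replicate values also given as a mean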
- Reading the numbers: mean viability with MMS and viability with MMS: higher = more surviving cells after MMS
The deposit covers about 23,000 reagents; this is an unselected part of those that have a named target and a result. 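Values are quantile-normalised luminescence on an arbitrary scale; higher means more cells surviving MMS.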 The numbers tell different reagents against one gene apart. A plus sign joins genes that one reagent is predicted to hit.

target gene	dsRNA no.	mean viability with MMS	viability with MMS, replicate 1	viability with MMS, replicate 2
CG8641	1	3.56e6	3.92e6	4.17e6
DptB (Diptericin B)	1	3.55e6	4.15e6	3.89e6
CG32638	1	3.50e6	3.93e6	4.02e6
Pgant4 (Polypeptide N-Acetylgalactosaminyltransferase 4)	1	3.73e6	4.17e6	4.17e6
Rbcn-3A (Rabconnectin-3A)	1	3.38e6	3.84e6	3.82e6
CG11227	1	3.53e6	4.01e6	4.01e6
DCTN1-p150 (Dynactin 1, p150 subunit)	1	3.44e6	3.76e6	4.03e6
Cyp309a1 (Cytochrome P450 309a1)	1	3.48e6	3.98e6	3.91e6
CG7789	1	3.68e6	4.14e6	4.17e6
Ttd14 (TRPL translocation defect 14)	1	3.36e6	3.77e6	3.87e6
Ttd14 (TRPL translocation defect 14)	2	3.33e6	3.71e6	3.79e6
Plap (Phospholipase A2 activator protein)	1	3.65e6	4.12e6	4.19e6
rasp	1	3.39e6	3.80e6	3.90e6
RyR (Ryanodine receptor)	1	3.69e6	4.12e6	4.13e6
Gr93a (Gustatory receptor 93a)	1	3.56e6	4.09e6	3.98e6
TTLL5 (Tubulin tyrosine ligase-like 5)	1	3.42e6	3.99e6	3.76e6
TMEM216 (Transmembrane protein 216)	1	3.69e6	4.15e6	4.18e6
Sox21a	1	3.52e6	3.94e6	4.03e6
LPCAT (Lysophosphatidylcholine acyltransferase)	1	3.95e6	4.60e6	4.27e6
LPCAT (Lysophosphatidylcholine acyltransferase)	2	3.58e6	4.05e6	4.05e6
sisA	1	3.43e6	3.88e6	3.90e6
scpr-A + scpr-C	1	3.59e6	4.03e6	4.09e6
CG9281	1	3.46e6	4.25e6	3.80e6
bsh (brain-specific homeobox)	1	1.86e6	4.04e6	
CG18809	1	3.47e6	4.01e6	3.88e6
His3.3A (Histone H3.3A)	1	2.77e6	3.28e6	3.25e6
Fim (Fimbrin)	1	3.65e6	4.25e6	4.07e6
IKKbeta (I-kappaB kinase beta)	1	3.75e6	4.31e6	4.12e6
narya	1	3.64e6	4.25e6	4.04e6
CDK2AP1 (CDK2-associated protein 1)	1	3.37e6	4.01e6	3.98e6
CG3287 (retired record)	1	3.67e6	4.22e6	4.00e6
Pep (Protein on ecdysone puffs)	1	3.48e6	3.96e6	3.92e6
mRpL35 (mitochondrial ribosomal protein L35)	1	3.61e6	4.09e6	4.10e6
CG32262	1	3.67e6	4.29e6	4.05e6
CG8229	1	3.40e6	3.81e6	3.85e6
CRAT (Carnitine O-Acetyl-Transferase)	1	3.64e6	4.16e6	4.07e6
CR33319 (pseudo)	1	3.57e6	4.02e6	4.05e6
babo (baboon)	1	3.56e6	4.02e6	4.04e6
CG10702	1	3.41e6	3.87e6	3.80e6
CG34205	1	3.58e6	4.08e6	4.04e6
CG34205	2	3.11e6	3.67e6	3.80e6
CG3679	1	3.55e6	4.19e6	3.96e6
CG31821	1	3.56e6	4.06e6	3.99e6
Dhc62B (Dynein heavy chain at 62B)	1	3.52e6	3.99e6	3.98e6
Tep1 (Thioester-containing protein 1)	1	3.46e6	3.94e6	3.91e6
sut2 (sugar transporter 2)	1	3.66e6	4.17e6	4.14e6
swi2	1	3.49e6	4.03e6	3.87e6
CG32591	1	3.41e6	3.91e6	3.88e6
antr (antares)	1	3.37e6	3.87e6	3.90e6
CG12206	1	3.43e6	3.78e6	4.00e6
CG9932	1	3.48e6	3.95e6	3.94e6
clu (clueless)	1	3.43e6	3.93e6	3.87e6
Fum4 (Fumarase 4)	1	3.72e6	4.19e6	4.12e6
E(bx) (Enhancer of bithorax)	1	3.44e6	3.91e6	3.91e6
E(bx) (Enhancer of bithorax)	2	3.22e6	3.66e6	3.67e6
E(bx) (Enhancer of bithorax)	3	3.00e6	3.64e6	3.61e6
Prp16 (pre-mRNA processing factor 16)	1	3.59e6	3.70e6	4.20e6
Prp16 (pre-mRNA processing factor 16)	2	3.44e6	3.91e6	3.87e6
CG17129	1	3.30e6	3.75e6	3.81e6
CG12012	1	3.60e6	4.05e6	4.08e6
CG9346	1	3.59e6	3.91e6	4.12e6
ast (asteroid)	1	3.58e6	4.01e6	4.11e6
AOX4 (Aldehyde oxidase 4)	1	3.70e6	4.34e6	4.06e6
TwdlD (TweedleD)	1	3.50e6	3.94e6	3.97e6
Adck1 (aarF domain containing kinase 1)	1	3.56e6	4.08e6	3.98e6
CG14852	1	3.55e6	3.93e6	4.15e6
CG11134	1	1.98e6	4.16e6	4.09e6
Gcn2	1	3.62e6	4.11e6	4.08e6

9 entries from above, set out differently:
mRpL35 (mitochondrial ribosomal protein L35)
- mean viability with MMS: 3.61e6
- viability with MMS, replicate 1: 4.09e6
- viability with MMS, replicate 2: 4.10e6

CG32262
- mean viability with MMS: 3.67e6
- viability with MMS, replicate 1: 4.29e6
- viability with MMS, replicate 2: 4.05e6

CG8229
- mean viability with MMS: 3.40e6
- viability with MMS, replicate 1: 3.81e6
- viability with MMS, replicate 2: 3.85e6

CRAT (Carnitine O-Acetyl-Transferase)
- mean viability with MMS: 3.64e6
- viability with MMS, replicate 1: 4.16e6
- viability with MMS, replicate 2: 4.07e6

CR33319 (pseudo)
- mean viability with MMS: 3.57e6
- viability with MMS, replicate 1: 4.02e6
- viability with MMS, replicate 2: 4.05e6

babo (baboon)
- mean viability with MMS: 3.56e6
- viability with MMS, replicate 1: 4.02e6
- viability with MMS, replicate 2: 4.04e6

CG10702
- mean viability with MMS: 3.41e6
- viability with MMS, replicate 1: 3.87e6
- viability with MMS, replicate 2: 3.80e6

CG34205 #1
- mean viability with MMS: 3.58e6
- viability with MMS, replicate 1: 4.08e6
- viability with MMS, replicate 2: 4.04e6

CG34205 #2
- mean viability with MMS: 3.11e6
- viability with MMS, replicate 1: 3.67e6
- viability with MMS, replicate 2: 3.80e6
